From patent EP4786493A1
Where a chain is given by its changes, count along the chain named. Results are given in words; binding and its absence hold for the method and conditions named. Some binding calls cover weakened binding; strength is not graded here.

Sequences of proteins named here, by UniProt entry; tags and fusion partners are left off. A change or cut given only in a name is not applied to a line headed by its entry. A line that says so, or that is headed by a name, gives the form on record, which may keep a tag or linker.
recombinant human Claudin 18.2 protein (GenScript, Z03504) (P56856, form named): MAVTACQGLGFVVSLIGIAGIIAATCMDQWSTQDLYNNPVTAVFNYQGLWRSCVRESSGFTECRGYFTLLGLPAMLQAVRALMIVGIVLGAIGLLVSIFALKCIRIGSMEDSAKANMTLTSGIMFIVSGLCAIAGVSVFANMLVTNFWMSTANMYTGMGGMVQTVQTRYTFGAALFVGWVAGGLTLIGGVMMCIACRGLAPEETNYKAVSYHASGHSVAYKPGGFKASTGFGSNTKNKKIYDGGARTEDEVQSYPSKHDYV

B1: AHP30826 (antibody, V domains shown)
VH: QVQLQQSGGGSVQAGGSLRLSCAASGTILSINAMGWYRQAPGKQRELVATITTGGNANYAHSVKGRFTISRDNAKNTVYLQMNNLKPEDTAVYYCNAEQVVVGFLQAYDVWGQGTTVTVSS
VL: DVVMTQSPLSLPVTLGQAASISCRSSQSLVHGDGNTYLNWIQQRPGQSPRRLIYKVSNRDSGVPDRFSGSGSGTDFTLKISRVEAEDVGVYYCMQGTHWPSTFGPGTKVDIK
B2: AHP32919 (antibody, V domains shown)
VH: QVQLQESGGGVVQPGGSLRLSCAASQSIGLLSTMGWYRQAAGKQRELVATITRGGSTNYGEFVKGRFTISRDNAKNTVYLQMNSLKPEDTAVYYCTADESWLGTQSYWGRGTRVTVSS
VL: QAGLTQPPSASGTPGQGVTISCSGSSSNIGSNSVNWYQQLPGTAPKLLMHSNNERSSGVPDRFSGSKSGSSASLAISGLQSEDAADYFCGAWDDSLNGYVFGTGTKLTVL
B3: AHP29153 (antibody, V domains shown)
VH: QLQQVESGGGLVQPGGSLRLSCAASRNIGILSTMGWYRQAPGKQRELVATITRGGSTNYGEFVKGRFTISRDNAKNTVYLQMNSLKPEDTAVYYCNVDESWLGTQSYWGRGTTVTVSS
VL: QSVLTQPASVSGSPGQSITISCTGTSSDVGGYKYVSWYQQPPGKAPKLIIYEVTKRPSGVPDRFSGSKSGNTASLTVSGLQAEDEADYYCLSYAGSNNVFGTGTKLTVL
B4: AHP32913 (antibody, V domains shown)
VH: B3 VH with L2V, Q4L, V5M, E6Q, T113Q
VL: QAVVTQEPSLTVSPGGTVTLTCGSSTGPVTSGHYPHWYQQKPGQAPKTLIFDTSHKHPWTPAQFSGSLLGGKAALTLSGAHPEDEAEYYCLLSYSGVRVFGGGTQLIIL
B5: AHP31548 (antibody, V domains shown)
VH: B3 VH with L2V, Q4L, V5M, E6Q
VL: QSALTQPPSASGSPGQSVTISCTGTSSDIGTYNFVSWYQQHPGKAPKLIIYEVSKRPSGVPDRFSGSKSGNTASLTVSGLQAEDEADYYCKSYPRVFGTGTKLTAL
B6: AHP32982 (antibody, V domains shown)
VH: B3 VH with L2V, Q4L, E6Q, T112P, T113L
VL: DIVMTQSPSSVSASVGDRVTITCRASQGISSWLAWYQQKPGKAPKLLIYAASSLQSGVPSRFSGSGSGTDFTLTISSLQPEDFATYYCQQANSFPLTFGGGTKVEIK

Biological target: recombinant human Claudin 18.2 protein (GenScript, Z03504) (human) (UniProt P56856)
Experiment: SPR Biacore 8K

| binding | Binder |
| --- | --- |
| binds | B1 |
| binds | B2 |
| binds | B3 |
| binds | B4 |
| binds | B5 |
| binds | B6 |

Biological target: recombinant human Claudin 18.2 protein (GenScript, Z03504) (human) (UniProt P56856)
Experiment: indirect ELISA on coated recombinant human Claudin 18.2

| binding | Binder |
| --- | --- |
| binds | B1 |
| binds | B2 |
| binds | B3 |
| binds | B4 |
| binds | B5 |
| binds | B6 |
